The list shows only some results of the screen, not a fair sample: it gathers tests that were run many times, whatever their T/C, doses with no T/C, and many T/C values between a quarter and a half above the control. Other doses and runs of a compound stand elsewhere. T/C is the treated group as % of the vehicle group. Some entries give survivors of the animals treated and no T/C: the source files T/C as zero there, which appears to mark a toxic dose or a test without result, not a measured value. Some survivor counts are full or nearly so, which does not show that the dose was tolerated: the source hardly ever lists a survival T/C far under the control, and the zero likely stands for such cases as well. Survivors were counted at the toxicity check, usually on the fifth day, unless a day is given; later deaths do not show. Schedule codes are those of the source, read here as Q, the interval in days (D) or hours (H), X, the number of doses. Some doses were run more than once; the results are listed from low to high. Where survival is the endpoint, the PubChem record calls one and a half times the control and up active, and a quarter to a half above the control has no call in these data; cut-offs in other NCI protocols can differ. Some T/C values carry the count of animals alive at the toxicity check (mostly the fifth day); without a count, all were alive then. Marks such as (2×) count equal records among those shown. Some schedules carry Z or #; the key to these is not given.
System: BDF1 mice, P388 leukemia ip, median survival T/C
Experiment: NCI In Vivo Anticancer Drug Screen. Data for tumor model P388 Leukemia (intraperitoneal) in B6D2F1 (BDF1) mice
Settings: T/C endpoint: median survival time, higher T/C = longer survival
Procedure, shortened: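 Transplantable tumour in mice; compound vs vehicle dosing; survival scored; ratio of treated to control reported.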

COc1cccc2c1C(=O)c1c(O)c3c(c(O)c1C2=O)C[C@@](O)(C(=O)CO)C[C@@H]3OC1CC(N)C(O)C(C)O1 (some centres not stated)
T/C (dose: 4.0 mg/kg/injection, schedule: Q04DX003 (ip), vehicle: saline, evaluated on day 11): 94 % of control
T/C (dose: 4.0 mg/kg/injection, schedule: Q04DX003 (ip), vehicle: saline, evaluated on day 60): 229 and 571 % of control
T/C (dose: 4.0 mg/kg/injection, schedule: Q04DX003 (ip), vehicle: water, evaluated on day 30): 116, 129, 135 [4 of 6 alive], 135 [5 of 6 alive], 144, 152, 163 % of control [5 of 6 alive]
T/C (dose: 4.0 mg/kg/injection, schedule: Q04DX003 (ip), vehicle: water, evaluated on day 32): 139 % of control
T/C (dose: 4.0 mg/kg/injection, schedule: Q04DX003 (ip), vehicle: water, evaluated on day 34): 219 % of control [7 of 8 alive]
T/C (dose: 4.0 mg/kg/injection, schedule: Q04DX003 (ip), vehicle: water, evaluated on day 38): 94 % of control [7 of 8 alive]
T/C (dose: 4.0 mg/kg/injection, schedule: Q04DX003 (ip), vehicle: water, evaluated on day 41): 245 % of control
T/C (dose: 4.0 mg/kg/injection, schedule: Q04DX003 (ip), vehicle: water, evaluated on day 46): 209 % of control
T/C (dose: 4.0 mg/kg/injection, schedule: Q04DX003 (ip), vehicle: water, evaluated on day 60): 174, 181, 208, 224, 241, 277, 293, 330 % of control
survivor count (dose: 4.0 mg/kg/injection, schedule: Q04DX003 (ip), vehicle: water): 3 of 3
T/C (dose: 4.0 mg/kg/injection, schedule: Q04DX004 (ip), vehicle: saline): 146 % of control
T/C (dose: 4.0 mg/kg/injection, schedule: Q04DX009 (ip), vehicle: water): 132 % of control
T/C (dose: 4.0 mg/kg/injection, schedule: Q## X003 (ip), vehicle: saline): 141 % of control
T/C (dose: 4.5 mg/kg/injection, schedule: Q04DX003 (sc), vehicle: saline): 130 % of control
T/C (dose: 4.8 mg/kg/injection, schedule: Q04DX003 (ip), vehicle: saline, evaluated on day 9): 183 % of control
T/C (dose: 4.8 mg/kg/injection, schedule: Q04DX003 (ip), vehicle: saline, evaluated on day 60): 92, 115, 121, 126, 132, 200, 220, 238, 291 % of control
T/C (dose: 5.0 mg/kg/injection, schedule: Q01DX001 (ip), vehicle: saline): 149 % of control
T/C (dose: 5.0 mg/kg/injection, schedule: Q01DX001 (sc), vehicle: saline): 135 % of control
T/C (dose: 5.0 mg/kg/injection, schedule: Q04DX003 (ip), vehicle: saline, evaluated on day 5): 100, 102, 111 (2×), 153, 163, 166, 167 (2×), 175, 176, 178, 180, 216, 344, 450, 520, 553 % of control (2×)
T/C (dose: 5.0 mg/kg/injection, schedule: Q04DX003 (ip), vehicle: saline, evaluated on day 8): 158 % of control
T/C (dose: 5.0 mg/kg/injection, schedule: Q04DX003 (ip), vehicle: saline, evaluated on day 45): 194 % of control
T/C (dose: 5.0 mg/kg/injection, schedule: Q04DX003 (ip), vehicle: saline, evaluated on day 60): 100, 102, 111 (2×), 153, 163, 166, 167 (2×), 175, 178, 180, 216, 305, 344, 450, 520, 553 (2×), 571 % of control
T/C (dose: 5.0 mg/kg/injection, schedule: Q04DX003 (ip), vehicle: water, evaluated on day 7): 157 and 198 % of control
T/C (dose: 5.0 mg/kg/injection, schedule: Q04DX003 (ip), vehicle: water, evaluated on day 62): 157 [7 of 8 alive] and 198 % of control
T/C (dose: 5.0 mg/kg/injection, schedule: Q04DX004 (ip), vehicle: saline): 130 % of control
survivor count (dose: 6.0 mg/kg/injection, schedule: Q01DX004 (ip), vehicle: saline with Tween-80): 7 of 7
survivor count (dose: 6.0 mg/kg/injection, schedule: Q03HX008 (ip), vehicle: saline): 3 of 10 and 7 of 10
survivor count (dose: 6.0 mg/kg/injection, schedule: Q03HX008 (sc), vehicle: saline): 5 of 10
T/C (dose: 6.0 mg/kg/injection, schedule: Q04DX003 (sc), vehicle: saline): 130 % of control
T/C (dose: 6.6 mg/kg/injection, schedule: Q01DX001 (ip), vehicle: saline): 147, 237, 247, 256, 260, 300, 481, 527, 538, 571 % of control
T/C (dose: 6.67 mg/kg/injection, schedule: Q04DX003 (ip), vehicle: water): 94, 104, 133 (2×), 149, 163, 209, 392 % of control
T/C (dose: 6.7 mg/kg/injection, schedule: Q01DX001 (ip), vehicle: saline, evaluated on day 5): 132 and 230 % of control
T/C (dose: 6.7 mg/kg/injection, schedule: Q01DX001 (ip), vehicle: saline, evaluated on day 60): 227, 292, 516, 532, 562 % of control
T/C (dose: 7.5 mg/kg/injection, schedule: Q01DX001 (ip), vehicle: saline): 141 % of control
T/C (dose: 7.5 mg/kg/injection, schedule: Q04DX003 (ip), vehicle: saline, evaluated on day 5): 104, 107, 117, 120, 152, 159, 185 (2×), 189, 190, 194, 206, 207 (2×), 551, 586 % of control
T/C (dose: 7.5 mg/kg/injection, schedule: Q04DX003 (ip), vehicle: saline, evaluated on day 8): 183 % of control
T/C (dose: 7.5 mg/kg/injection, schedule: Q04DX003 (ip), vehicle: saline, evaluated on day 60): 104, 107, 117, 120, 152, 159, 185 (2×), 189, 190, 194, 206, 207 (2×), 551, 586 % of control
T/C (dose: 8.0 mg/kg/injection, schedule: Q01DX001 (ip), vehicle: saline, evaluated on day 1): 250 % of control
T/C (dose: 8.0 mg/kg/injection, schedule: Q01DX001 (ip), vehicle: saline, evaluated on day 5): 242, 261, 295, 486 % of control
T/C (dose: 8.0 mg/kg/injection, schedule: Q01DX001 (ip), vehicle: saline, evaluated on day 6): 250 % of control
T/C (dose: 8.0 mg/kg/injection, schedule: Q01DX001 (ip), vehicle: saline, evaluated on day 8): 207 % of control
T/C (dose: 8.0 mg/kg/injection, schedule: Q01DX001 (ip), vehicle: saline, evaluated on day 11): 97 % of control
T/C (dose: 8.0 mg/kg/injection, schedule: Q01DX001 (ip), vehicle: saline, evaluated on day 90): 295 % of control
survivor count (dose: 8.0 mg/kg/injection, schedule: Q03HX008 (ip), vehicle: saline): 0 of 10
survivor count (dose: 8.0 mg/kg/injection, schedule: Q03HX008 (sc), vehicle: saline): 2 of 10
T/C (dose: 8.0 mg/kg/injection, schedule: Q04DX003 (ip), vehicle: saline, evaluated on day 9): 181 and 192 % of control
T/C (dose: 8.0 mg/kg/injection, schedule: Q04DX003 (ip), vehicle: saline, evaluated on day 60): 87, 89, 97, 110 % of control
survivor count (dose: 8.0 mg/kg/injection, schedule: Q04DX003 (ip), vehicle: saline): 8 of 8
T/C (dose: 8.0 mg/kg/injection, schedule: Q04DX003 (ip), vehicle: water, evaluated on day 30): 155, 160, 171, 173, 179, 182, 198 % of control [5 of 6 alive]
T/C (dose: 8.0 mg/kg/injection, schedule: Q04DX003 (ip), vehicle: water, evaluated on day 34): 114 % of control
T/C (dose: 8.0 mg/kg/injection, schedule: Q04DX003 (ip), vehicle: water, evaluated on day 41): 125 % of control
T/C (dose: 8.0 mg/kg/injection, schedule: Q04DX003 (ip), vehicle: water, evaluated on day 60): 86 % of control

Source: PubChem BioAssay AID328 (DTP/NCI, 2004)
